Laboratory results: PubChem BioAssay AID652243 (Drosophila RNAi Screening Center, 2013)

Purpose: 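Fly genes required for human androgen receptor driven transcription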 (primary screen)
System: Drosophila S2R+ cells
Knock-down reagent: long dsRNA against Drosophila genes
Time to read-out: 72 h (48 h, then 24 h hormone)
Conditions: synthetic androgen R1881 at 10 nM for 24 h
Measured: 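Firefly light from an androgen-responsive reporter and Renilla control light per well, raw and unnormalised, for each of two replicates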
Scale: firefly reporter light: higher = more light from androgen-responsive reporter; Renilla control light: higher = more constitutive control signal (cell number, transfection)
Rule for the call: 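Across duplicate plates, a knock-down whose log firefly/Renilla ratio shifted a set fold down or up from the GFP/LacZ control mean was a hit; the downward cut appears as both 1.5 and 3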
Calls: active = hit: reporter lowered or raised; inactive = no hit
The deposit covers about 24,000 reagents; below is an unselected part of those that have a named target and a result. Of all reagents, 246 (1%) got an active call. 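Plates not normalised; calls are printed but the firefly/Renilla ratio behind them is not deposited; fold cut for lowering reported inconsistently.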 The raw values are shown without normalisation. A plus sign joins genes that one reagent is predicted to hit. Reagent sequences are not shown. Not stated in the record: the amount of reagent.

Gene | amplicon | firefly reporter light, replicate 1 | firefly reporter light, replicate 2 | Renilla control light, replicate 1 | Renilla control light, replicate 2 | activity call
sdk | DRSC18831 | 36060 | 30002 | 3.55e5 | 2.03e5 | inactive
CG13623 | DRSC14625 | 2.00e5 | 1.85e5 | 1.14e6 | 1.33e6 | inactive
LysD | DRSC26238 | 4.27e5 | 3.64e5 | 4.25e5 | 7.20e5 | inactive
CG17996 + Tsen2 | DRSC02650 | 1.33e5 | 1.97e5 | 1.35e6 | 1.76e6 | inactive
CG33704 | DRSC38898 | 8.18e5 | 7.01e5 | 1.85e6 | 1.17e6 | inactive
Sirup | DRSC03031 | 3.04e5 | 3.16e5 | 2.45e6 | 2.66e6 | inactive
Sirup | DRSC29298 | 1.02e6 | 7.82e5 | 2.19e6 | 1.65e6 | inactive
Sirup | DRSC39012 | 6.12e5 | 4.99e5 | 1.55e6 | 1.27e6 | inactive
fy | DRSC03533 | 1.73e5 | 1.23e5 | 1.59e6 | 1.39e6 | inactive
fy | DRSC25931 | 2.76e5 | 3.85e5 | 8.22e5 | 9.21e5 | inactive
CG15739 | DRSC19705 | 3.52e5 | 3.93e5 | 3.21e6 | 2.32e6 | inactive
CG15739 | DRSC28638 | 2.86e5 | 3.83e5 | 1.43e6 | 9.66e5 | inactive
Grip75 | DRSC03337 | 1.83e5 | 1.29e5 | 1.17e6 | 1.02e6 | inactive
Irp-1A | DRSC16719 | 4.75e5 | 6.20e5 | 1.64e6 | 2.45e6 | inactive
CG3740 | DRSC18508 | 3.28e5 | 2.50e5 | 2.75e6 | 2.84e6 | inactive
Cpr92A | DRSC16000 | 2.02e5 | 1.98e5 | 2.79e6 | 2.89e6 | inactive
Cpr92A | DRSC25340 | 8.17e5 | 8.92e5 | 9.61e5 | 1.15e6 | inactive
CG41087 (retired record) | DRSC37850 | 1.34e6 | 1.41e6 | 1.30e6 | 1.49e6 | inactive
Spt | DRSC07123 | 2.96e5 | 3.92e5 | 2.13e6 | 2.41e6 | inactive
Spt | DRSC29487 | 5.49e5 | 3.48e5 | 8.37e5 | 8.37e5 | inactive
Syn1 | DRSC11803 | 2.12e5 | 2.91e5 | 2.18e6 | 2.73e6 | inactive
Syn1 | DRSC11804 | 2.57e5 | 1.81e5 | 1.65e6 | 1.58e6 | inactive
Syn1 | DRSC30039 | 5.20e5 | 3.84e5 | 1.02e6 | 1.05e6 | inactive
CG2915 | DRSC06842 | 1.32e6 | 1.36e6 | 1.85e6 | 2.15e6 | inactive
CR43087 + CR43086 + CG34002 | DRSC11953 | 1.12e6 | 9.27e5 | 9.26e5 | 7.97e5 | inactive
Ilp7 | DRSC17895 | 3.90e5 | 4.01e5 | 4.42e6 | 4.49e6 | inactive
CG13579 | DRSC04215 | 1.76e5 | 2.24e5 | 1.15e6 | 1.41e6 | inactive
CG13579 | DRSC25603 | 1.07e6 | 1.18e6 | 1.38e6 | 1.37e6 | inactive
dikar | DRSC09699 | 7.42e5 | 7.53e5 | 1.40e6 | 1.64e6 | inactive
dikar | DRSC22261 | 5.26e5 | 5.34e5 | 7.13e5 | 5.87e5 | inactive
dikar | DRSC26562 | 6.75e5 | 4.86e5 | 6.38e5 | 6.02e5 | inactive
Lsd-2 | DRSC20143 | 88725 | 1.26e5 | 8.19e5 | 1.12e6 | inactive
Lsd-2 | DRSC28901 | 4.66e5 | 3.50e5 | 1.24e6 | 8.45e5 | inactive
Or59a | DRSC04631 | 3.11e5 | 3.17e5 | 2.28e6 | 1.79e6 | inactive
Bet1 | DRSC10088 | 2.80e5 | 1.76e5 | 1.43e6 | 1.19e6 | inactive
CG9485 | DRSC04557 | 7.21e5 | 6.25e5 | 2.05e6 | 1.84e6 | inactive
RfC4 | DRSC08691 | 9.40e5 | 6.05e5 | 1.67e6 | 1.88e6 | inactive
RfC4 | DRSC29522 | 8.07e5 | 6.36e5 | 1.29e6 | 1.29e6 | inactive
rod | DRSC17047 | 1.72e5 | 1.25e5 | 2.49e6 | 2.05e6 | inactive
CG34294 (retired record) | DRSC38649 | 1.05e6 | 6.52e5 | 2.53e6 | 2.18e6 | inactive
row | DRSC07076 | 6.92e5 | 5.98e5 | 8.45e5 | 9.46e5 | inactive
row | DRSC07077 | 58590 | 61077 | 1.28e6 | 1.28e6 | inactive
Alk | DRSC05918 | 7.80e5 | 1.07e6 | 1.41e6 | 2.23e6 | inactive
Alk | DRSC23342 | 8.95e5 | 8.89e5 | 1.35e6 | 1.45e6 | inactive
Alk | DRSC36972 | – | – | – | – | inactive
Alk | DRSC36973 | – | – | – | – | inactive
CG15553 | DRSC15091 | 2.29e5 | 2.56e5 | 1.80e6 | 3.17e6 | inactive
Sesn | DRSC04101 | 8.53e5 | 9.73e5 | 1.72e6 | 1.80e6 | inactive
Sesn | DRSC04102 | 4.17e5 | 3.74e5 | 2.41e6 | 1.79e6 | inactive
Sesn | DRSC04103 | 3.50e5 | 3.72e5 | 2.87e6 | 2.16e6 | inactive
cag | DRSC07587 | 3.70e5 | 2.00e5 | 1.88e6 | 1.75e6 | inactive
cag | DRSC29225 | 5.45e5 | 4.37e5 | 1.26e6 | 1.03e6 | inactive
CG33509 | DRSC37778 | 8.06e5 | 7.11e5 | 2.35e6 | 1.78e6 | inactive
Acp26Ab | DRSC01856 | 1.69e5 | 2.51e5 | 1.68e6 | 2.47e6 | inactive
Acp26Ab | DRSC28398 | 3.11e5 | 8.26e5 | 6.43e5 | 1.30e6 | inactive
RhoGEF3 | DRSC08266 | 6.92e5 | 8.40e5 | 1.22e6 | 1.47e6 | inactive
RhoGEF3 | DRSC08351 | 77688 | 84568 | 1.19e6 | 9.19e5 | inactive
RhoGEF3 | DRSC08352 | 1.03e5 | 86524 | 1.05e6 | 8.84e5 | inactive
RhoGEF3 | DRSC08353 | 70894 | 1.63e5 | 1.51e6 | 1.93e6 | inactive
CSN1b | DRSC11108 | 42103 | 30234 | 3.70e5 | 3.75e5 | inactive
CG42446 + CG17931 | DRSC28824 | 2.15e5 | 2.90e5 | 8.58e5 | 9.19e5 | inactive
CG17744 | DRSC10286 | 2.64e5 | 1.91e5 | 3.19e6 | 2.35e6 | inactive
CG31777 | DRSC00201 | 2.16e5 | 2.01e5 | 4.07e5 | 3.85e5 | inactive
l(3)80Fg | DRSC21645 | 1.08e6 | 1.08e6 | 1.83e6 | 1.97e6 | inactive
l(3)80Fg | DRSC22171 | 7.03e5 | 5.96e5 | 2.72e6 | 2.04e6 | inactive
l(3)80Fg | DRSC38565 | 8.89e5 | 7.53e5 | 2.07e6 | 2.00e6 | inactive
Dso2 | DRSC37896 | 7.11e5 | 8.82e5 | 1.35e6 | 1.68e6 | inactive
CG41284 + CG42598 | DRSC37841 | 8.71e5 | 1.09e6 | 1.40e6 | 1.97e6 | inactive
CG34278 | DRSC38818 | 8.18e5 | 6.83e5 | 2.83e6 | 1.72e6 | inactive
CG15170 | DRSC02471 | 1.46e5 | 1.34e5 | 1.36e6 | 1.25e6 | inactive
CG17721 | DRSC15253 | 2.03e5 | 2.61e5 | 3.22e6 | 2.71e6 | inactive
CG17270 | DRSC15209 | 1.51e5 | 2.61e5 | 1.10e6 | 1.57e6 | inactive
SF1 | DRSC16844 | 1.38e5 | 1.23e5 | 2.29e6 | 2.19e6 | inactive
Capa | DRSC15058 | 1.16e5 | 1.08e5 | 9.57e5 | 7.50e5 | inactive

Copied from the list.
CG13579 [DRSC04215], firefly reporter light, replicate 2 → 2.24e5
For “firefly reporter light, replicate 2”, Alk [DRSC05918] reads 1.07e6
Value of row [DRSC07077] under “activity call”: inactive
CG41284 + CG42598 [DRSC37841], Renilla control light, replicate 1 → 1.40e6
For “Renilla control light, replicate 2”, Spt [DRSC07123] reads 2.41e6
Entry for Syn1 [DRSC30039] in “Renilla control light, replicate 1”: 1.02e6
